# Laboratory results published in PubChem BioAssay AID2551 (National Center for Advancing Translational Sciences (NCATS), 2010).
# By UniProt entry, the sequences of proteins in these tests, tags left out. Where a name states a change or a piece, a line headed by the entry shows the natural chain unless it says otherwise.
# UniProt P51450: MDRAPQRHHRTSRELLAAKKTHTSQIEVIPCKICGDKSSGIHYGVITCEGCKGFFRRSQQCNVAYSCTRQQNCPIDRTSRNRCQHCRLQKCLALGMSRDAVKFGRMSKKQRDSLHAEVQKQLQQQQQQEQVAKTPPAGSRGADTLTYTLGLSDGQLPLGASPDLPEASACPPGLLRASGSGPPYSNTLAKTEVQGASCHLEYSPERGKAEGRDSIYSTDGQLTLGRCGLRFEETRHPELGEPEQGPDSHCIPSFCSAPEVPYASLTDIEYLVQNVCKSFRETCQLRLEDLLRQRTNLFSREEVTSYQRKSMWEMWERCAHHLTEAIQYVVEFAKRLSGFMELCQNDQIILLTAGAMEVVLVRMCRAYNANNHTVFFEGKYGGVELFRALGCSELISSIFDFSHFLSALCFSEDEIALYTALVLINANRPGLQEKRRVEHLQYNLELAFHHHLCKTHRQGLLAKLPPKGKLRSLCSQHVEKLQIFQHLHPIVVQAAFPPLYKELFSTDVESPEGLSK
# In all, about 310,000 compounds went through this assay and about 17,000 (5.5%) were called active. Inconclusive means that the source gave no clear call. Such entries were picked first, then a sample of the others. Calls come from the whole dose curve; as a rule, active = well fitted inhibition curve with a large enough effect; inconclusive = small, poorly fitted or top-dose-only effect, or effect the other way; inactive = no such curve, though single readings can be large or run the other way. A potency beside an inconclusive call is a rough fit, not a confirmed value.
# Target: Nuclear receptor ROR-gamma (Mus musculus) (UniProt P51450)
# Experiment: qHTS for inhibitors of ROR gamma transcriptional activity; note: nearly all actives have a fitted effect of over 60% in size
# Settings: Drosophila S2 Gal4-RORgamma UAS-luciferase reporter, 20 h; series mostly up to 53.6 µM
# Summary of the method: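 Using a luciferase readout, inhibitors were identified by reduced reporter activity in Drosophila cells coexpressing a copper-inducible Gal4–ROR gamma fusion and UAS-driven Photinus luciferase, incubated 20 hr after 700 uM copper sulfate.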
# Potency is the fitted concentration of half-maximal effect.
row,SMILES,Potency
1,Cc1ccc(/C(O)=C/C(=O)C(=O)NNC(=O)C(O)(c2ccccc2)c2ccccc2)cc1,"inconclusive: 20 µM [inhibitor, single point]"
2,COc1ccc(CNc2ncnc3c2[nH]c2ccccc23)cc1,"inconclusive: 35.5 µM [inhibitor, single point]"
3,O=C(/C=C/c1ccco1)NC(=S)Nc1ccccc1N1CCOCC1,active: 2.82 µM
4,COC1[C@@H](OC)C[C@H](C)[C@@H](OC)C2=CC(=O)C=C(NC(=O)/C(C)=C/C=C\[C@H](OC)[C@@H](OC(N)=O)/C(C)=C/[C@@H]1C)C2=O (stereo partly specified),inactive
5,Cc1ccc(/C=[N+](\[O-])c2ccc(N(C)C)cc2)c2nsnc12,active: 5.01 µM
6,Cc1ccc(-n2ncc3c(N4CCC5(CC4)OCCO5)ncnc32)c(C)c1,"inconclusive: 31.6 µM [activator, single point]"
7,CCN(CC)c1ccc(NC(=O)CN(C)Cc2cccs2)cc1,inactive
8,COc1ccc2cc3c(N)nn(C(=O)c4ccc(F)cc4)c3nc2c1,inactive
9,Cc1nc2cc(-c3ccc(Br)cc3)[nH]n2c(=O)c1Cl,"inconclusive: 3.55 µM [inhibitor, single point]"
10,C=C1CCN(C(C(=O)O)C(C)C)S(=O)(=O)c2ccccc21 (stereo unspecified),inactive
11,COc1ccc(C(=O)Nc2nnc(SCC(=O)NCc3ccco3)s2)c(OC)c1,active: 11.2 µM
12,Cc1ccc(-c2c(C(=O)N/N=C/c3ccoc3)nnn2-c2nonc2N)cc1,active: 11.2 µM
13,COCCCNC(NC(=O)c1ccc(Br)cc1)C(Cl)(Cl)Cl (stereo unspecified),"inconclusive: 2.82 µM [inhibitor, partial curve, poor fit]"
14,COc1cc2ncc(S(=O)(=O)c3ccccc3)c(N3CCCC(C)C3)c2cc1OC (stereo unspecified),"inconclusive: 31.6 µM [activator, single point]"
15,O=C(NC(=S)N1CCN(c2c(Cl)cccc2[N+](=O)[O-])CC1)c1cccs1,active: 0.282 µM
16,COc1ccc(N2CCN(C(=O)c3ccc4c(c3)NC(=O)C(CSCc3cccc(F)c3)N4)CC2)cc1 (stereo unspecified),inactive
17,O=C(Nc1ccon1)c1ccc(Cl)c(S(=O)(=O)N2CCCCC2)c1,active: 1.41 µM
18,O=C(NCc1ccco1)c1n[nH]c(=O)c2ccccc12,"inconclusive: 20 µM [activator, partial curve]"
19,N#CC1C(C#N)N2CCCN2C1c1ccc(Br)cc1 (stereo unspecified),inactive
20,C/C(=N\Nc1ccc(Cl)cc1)c1c(O)cc(C)oc1=O,inactive
21,COc1ccc(S(=O)(=O)N(C)c2ccc(C(=O)Nc3cccnc3)cc2)cc1,"inconclusive: 17.8 µM [activator, partial curve]"
22,O=C1c2cccc3cc([N+](=O)[O-])cc(c23)C(=O)N1CCN1CCCC1,"inconclusive: 10 µM [inhibitor, partial curve]"
23,O=C(NN1C(=O)CSC1=S)c1cccnc1,inactive
24,O=[N+]([O-])c1ccc(SCc2ccco2)cc1N1CCOCC1,"inconclusive: 17.8 µM [activator, single point]"
25,COc1ccc(OCC(=O)Nc2nnc(-c3ccco3)s2)cc1,"inconclusive: 5.01 µM [activator, partial curve]"
26,CCOC(=O)C(CC)/C(C)=N/NC(=O)c1ccc([N+](=O)[O-])cc1 (stereo unspecified),active: 12.6 µM

row,SMILES,Potency
1,O=c1[nH]c(/C=C2\C=Nc3ccccc32)c(O)n1Cc1ccccc1F,inactive
2,C=CCc1c(C)nc(N)[nH]c1=O,"inconclusive: 0.178 µM [inhibitor, full curve]"
3,Cc1cccc(C(=O)Oc2ccc(/C=N/NC(=O)c3ccccc3O)cc2)c1,active: 3.55 µM
4,Cc1[nH]n(-c2ccccc2)c(=O)c1C(C[N+](=O)[O-])c1ccc(Br)cc1 (stereo unspecified),"inconclusive: 20 µM [inhibitor, single point]"
5,Cc1ccc(CSc2[nH]c(=O)ncc2C)cc1,inactive
6,N#CCCn1c(=O)c(-c2ccccc2)nc2cnc(Oc3cccc(Cl)c3)nc21,inactive
7,CC1(C)NC(=O)N(CCCOc2ccc(Br)cc2Cl)C1=O,"inconclusive: 2.82 µM [activator, partial curve, poor fit]"
8,O=S(=O)(Nc1ccc2ccccc2n1)c1ccccc1,inactive
9,O=C(c1cccc(COc2ccc(Cl)cc2Cl)c1)N1CCN(c2ccccn2)CC1,"inconclusive: 5.01 µM [activator, partial curve]"
10,CC(NCc1cccc(OCc2ccccc2)c1)C(O)c1ccccc1 (stereo unspecified),"inconclusive: 14.1 µM [inhibitor, single point]"
11,COc1cc(/C=N/NC(=S)NC2CC3CC2C2C=CCC32)ccc1O (stereo unspecified),active: 1.58 µM
12,O=c1[nH]c(=O)n(Cc2ccccc2)c2nc(-c3ccc(Oc4ccc(F)cc4)c([N+](=O)[O-])c3)n(CCO)c12,"inconclusive: 17.8 µM [activator, partial curve]"
13,Cc1c(C(C)(C)O)[nH]c2ccc(C#N)cc12,inactive
14,Clc1ccc(-c2csc3ncnc(Cl)c23)cc1,active: 11.2 µM
15,COc1ccc2ccccc2c1-c1c(OC)ccc2ccccc12,inactive
16,O=C(Nc1cccc(F)c1)N1CC2(CCN(C(=O)c3cc(C(F)(F)F)cc(C(F)(F)F)c3)CC2)C1,inactive
17,Cc1c(C(=O)N/N=C/C(C)C)[nH]c2ccc([N+](=O)[O-])cc12,"inconclusive: 35.5 µM [inhibitor, single point]"
18,CCCCn1c(=N)n(CC(O)c2ccccc2)c2ccccc21 (stereo unspecified),inactive
19,O=C(O)CSc1c(-c2ccccc2)c2cc(Cl)ccc2[nH]c1=O,"inconclusive: 25.1 µM [inhibitor, single point]"
20,Cc1cccc(C)c1NC(=S)Nc1ccccc1C(=O)NCc1ccco1,"inconclusive: 15.8 µM [inhibitor, single point]"
21,O=C(Nc1ccc(NC(=O)c2ccco2)nc1)c1ccco1,active: 7.94 µM
22,c1ccc(-c2nc3c4ccccc4ccn3c2CN2CCOCC2)cc1,"inconclusive: 1.26 µM [inhibitor, partial curve]"
23,CC(C)(C)c1ccc(Cn2c(=O)cnc3ccccc32)cc1,active: 22.4 µM
24,COCCOC(=O)C1=C(C)OC(N)=C(C#N)C1c1ccc2c(c1)OCO2 (stereo unspecified),"inconclusive: 0.282 µM [activator, single point]"
25,COC(=O)c1ccc(NC(=O)Cn2nc(SC)n(N)c2=S)cc1,"inconclusive: 15.8 µM [activator, single point]"
26,O=C(O)Cn1c(CCS(=O)(=O)c2ccc(Br)cc2)nc2ccccc21,inactive

# In the list so far, these contain a cyano group.
row,SMILES,Potency
19,N#CC1C(C#N)N2CCCN2C1c1ccc(Br)cc1 (stereo unspecified),inactive
6,N#CCCn1c(=O)c(-c2ccccc2)nc2cnc(Oc3cccc(Cl)c3)nc21,inactive
13,Cc1c(C(C)(C)O)[nH]c2ccc(C#N)cc12,inactive
24,COCCOC(=O)C1=C(C)OC(N)=C(C#N)C1c1ccc2c(c1)OCO2 (stereo unspecified),"inconclusive: 0.282 µM [activator, single point]"

# The results go on:

row,SMILES,Potency
1,Cc1ccc(C)c(N2CCN(C(=O)CCCN3C(=S)NC(C)(C)CC3C)CC2)c1 (stereo unspecified),active: 5.62 µM
2,O=C1C2C3C=CC(C3)C2C(=O)N1/N=C/c1cn(Cc2ccccc2)c2ccccc12 (stereo unspecified),"inconclusive: 12.6 µM [activator, partial curve]"
3,O=C(Nc1cccnc1)c1ccc(Oc2ccccc2)cc1,"inconclusive: 0.562 µM [activator, full curve, poor fit]"
4,CS(=O)(=O)N1N=C(c2ccco2)CC1c1ccc(Br)cc1 (stereo unspecified),"inconclusive: 14.1 µM [activator, partial curve, poor fit]"
5,Cc1ccc(CSc2nnc(-c3cccc(S(=O)(=O)N4CCOCC4)c3)n2CC(C)C)cc1,"inconclusive: 17.8 µM [activator, single point]"
6,Cc1c(CCO)c(=O)[nH]n1C(=O)c1ccc(F)cc1,active: 10 µM
7,Fc1ccc(NCc2ccccc2F)cc1Cl,"inconclusive: 11.2 µM [activator, partial curve]"
8,COc1ccc2cc(CCNC(=O)C3CCCC3)c(=O)[nH]c2c1,"inconclusive: 1 µM [inhibitor, partial curve]"
9,COc1cc(C(=O)NC2CCCc3ccccc32)cc(OC)c1C (stereo unspecified),"inconclusive: 28.2 µM [inhibitor, single point]"
10,Cc1ccccc1CC1(CO)CCCN(C(=O)Cc2c(F)ccc(F)c2F)C1 (stereo unspecified),"inconclusive: 35.5 µM [activator, single point]"
11,CCOC(=O)N1CCN(C(=O)CSCC(=O)Nc2nc(-c3ccc4c(c3)OCO4)cs2)CC1,"inconclusive: 12.6 µM [activator, partial curve]"
12,O=C(c1ccc(CSc2ccc(Cl)cc2)cc1)N1CCOCC1,"inconclusive: 14.1 µM [activator, single point]"
13,O=C1c2oc3ccc(F)cc3c(=O)c2C(c2cccc(O)c2)N1CCCN1CCOCC1 (stereo unspecified),inactive
14,COc1cccc(CN2CCN(Cc3nc(-c4cccc(F)c4F)oc3C)CC2=O)c1,inactive
15,COc1ccc(NC(=O)C2CC(c3ccc(OC)c(OC)c3)=NO2)cc1OC (stereo unspecified),"inconclusive: 35.5 µM [activator, single point]"
16,COC(=O)c1sccc1NC(=S)N1CCCCC1,inactive
17,COc1ccc(/C=N/OCC(=O)Nc2nc3ccccc3s2)cc1OC,inactive
18,CCOCCCNCc1cc(Cl)ccc1OCC,inactive
19,O=C(CCSc1nc2ccccc2s1)N/N=C/c1c(O)ccc2ccccc12,active: 1.41 µM
20,O=C(CN1CCCC1)Nc1ccc(OC(F)(F)F)cc1,"inconclusive: 0.282 µM [inhibitor, single point]"
21,O=S(=O)(Nc1ncccn1)c1ccc(NC(=S)Nc2cccc(Cl)c2)cc1,active: 11.2 µM
22,CC(=O)N1c2ccccc2Nc2ccccc21,"inconclusive: 3.55 µM [activator, partial curve, poor fit]"
23,COc1ccc(NC(=O)c2c(NC(=O)CNCc3ccco3)sc3c2CCC3)c(OC)c1,active: 1.12 µM
24,COc1cccc2cc(C(=O)C3=C(O)C(=O)N(c4cc(C)on4)C3c3cccs3)oc12 (stereo unspecified),"inconclusive: 12.6 µM [inhibitor, partial curve]"
